In this data set the test system is PDHE1α S300 phosphorylation. Briefly: Pyruvate dehydrogenase complex (PDH) cellular activity: immunofluorescence of p-PDH E1α (Ser300) in AD-293 cells. To be noted: 60 µM compound versus 5 mM DCA. Type of data set: cell-based, Human. The procedure: Point two percent gelatin was added to a black 96-well plate with a clear bottom and incubated for 1 h. Afterwards, the plate was washed with growth media. Human AD-293 cells, derived from the HEK293 cells, were seeded into black 96-well plates with a clear bottom and grown for 24 h. Compounds were then added and incubated for 24 h. The cells were then fixed with 2% paraformaldehyde, and permeabilized anti-PDHE1 pSer300 (Merk Millipore, Burlington, MA, AP1064) was added and incubated overnight. Next, the cells were washed and Alexa fluor 488, goat anti-rabbit ab (Invitrogen, Waltham, MA, A11008) was added with Hoechst 33,258 (Invitrogen, H3569) and incubated for 2 h. Finally, cells were washed, and the plates were measured in Operetta (PerkinElmer, Waltham, MA). The raw data were normalized for the pharmacological inhibitor control (5 mM dichloroacetate (DCA)) and percentage effect values using the software package Harmony High-Content Imaging and Analysis Software 3.1. Dose response curves were generated by plotting the percentage effect values and IC50 values were calculated via GraphPad Prism 6.

The values that follow come from publication PMC8469962, “Unusual Bicyclo[3.2.1]Octanoid Neolignans from Leaves of Piper crocatum and Their Effect on Pyruvate Dehydrogenase Activity” (Plants, 2021).

As to `C=CCC12C=C(OC)C(=O)C(OC)(C(c3cc(OC)c(OC4OC(CO)C(O)C(O)C4O)c(OC)c3)C1C)C2O` [Compound 2, (1′R,2′R,3′S,7S,8R)-∆^5′^,8′-2′-hydroxy-3,5,3′,5′-tetramethoxyl-4′-oxo-8.1′7.3′-neolignan-4-O-β-D-glucopyranoside], the “consumption of compound, times lower than that of DCA” value worked out at 83 times.

On to `C=CCC1=CC2(OC)C(C)C(c3cc(OC)c(OC4OC(CO)C(O)C(O)C4O)c(OC)c3)C(OC)(C1=O)C2O` [Compound 3, (1′R,2′S,3′R,7S,8R)-∆^5′^8′-2′-hydroxy-3,5,1′,3′-tetramethoxyl-4′-oxo-8.1′7.3′-neolignan-4-O-β-D-glucopyranoside], for which the “consumption of compound, times lower than that of DCA” value is on record as 83 times.
